Results deposited as PubChem BioAssay AID720710 (VTT Finland, 2013).

Purpose: 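Genes whose loss lowers DNA synthesis when an oncogene drives replication stress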 (primary screen)
Cells: human U-2 OS bone cancer cells, parental and a cyclin E (CCNE1) overexpressing line
Knock-down reagent: single siRNA against human genes, 1 µM siRNA in the printed spot mix
Duration: 67 h
Challenge: half the arrays: hydroxyurea 2 mM for 16 h, then 3 h recovery; other arrays untreated
Measured: 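DNA synthesis measured as imaged EdU uptake per nucleus (DAPI) at 67 h, normalised to subgrid median and given as z-score versus non-targeting controls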
Scale: EdU z-score, cyclin E line, hydroxyurea and EdU z-score, parental, hydroxyurea and EdU z-score, cyclin E line, untreated and EdU z-score, parental, untreated: higher = more DNA synthesis than non-targeting controls
Shown is one part, drawn at random, of about 1,380 reagents tested. 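One array per condition without replicates; hydroxyurea arrays received 2 mM for 16 h plus 3 h recovery.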 The numbers tell different reagents against one gene apart. Reagent sequences are not shown.

| gene | siRNA no. | EdU z-score, cyclin E line, hydroxyurea | EdU z-score, parental, hydroxyurea | EdU z-score, cyclin E line, untreated | EdU z-score, parental, untreated |
| --- | --- | --- | --- | --- | --- |
| RFC4 | 1 | -2.05 | -3.14 | -2.66 | -0.0529 |
| RFC4 | 2 | -0.384 | 2.58 | 0.378 | 0.828 |
| TOP1MT | 1 | 0.339 | 0.0529 | -0.935 | -0.992 |
| TOP1MT | 2 | 0.446 | 0.354 | 1.23 | -0.278 |
| ATM | 1 | -0.957 | 0.787 | -1.52 | -0.517 |
| ATM | 2 | -0.351 | 1.01 | -0.874 | -0.172 |
| FAAP100 | 1 | -0.167 | -2.77 | -4.06 | -1.35 |
| FAAP100 | 2 | 1.77 | -1.72 | -1 | -0.0849 |
| KMT5C | 1 | -1.02 | -1.84 | -1.26 | -1.72 |
| KMT5C | 2 | -0.801 | 2.06 | 0.559 | -1.15 |
| TP53BP1 | 1 | 0.787 | -0.94 | -0.278 | -1.61 |
| TP53BP1 | 2 | 0.946 | 0.548 | 0.512 | -0.795 |
| RAD1 | 1 | 0.0397 | -5.07 | -0.045 | -0.859 |
| RAD1 | 2 | 2.04 | 2.5 | 0.139 | -0.641 |
| BDP1 | 1 | 0.417 | 0.365 | -0.792 | -0.877 |
| BDP1 | 2 | 1.4 | 2.83 | -0.632 | -0.647 |
| RNF123 | 1 | -0.977 | -2.26 | -0.613 | 1.24 |
| RNF123 | 2 | 0.205 | 2.32 | 0.778 | 2.04 |
| LOC651921 | 1 | 0.0146 | 0.425 | -1.22 | -1.85 |
| LOC651921 | 2 | 0.64 | 2.23 | -0.817 | -1.19 |
| MCM9 | 1 | -0.976 | -2.87 | -2.15 | 0.123 |
| MCM9 | 2 | 1.7 | -1.96 | 0.0596 | 3.44 |
| RNF128 | 1 | 0.0424 | -2.93 | -4.87 | -1.3 |
| RNF128 | 2 | 2.41 | -0.163 | -0.0456 | 0.339 |
| TRIM32 | 1 | 0.0655 | -1.26 | -1.06 | -0.744 |
| TRIM32 | 2 | 0.494 | 3.68 | -1.03 | 0.147 |
| POLA2 | 1 | -1.1 | -1.83 | -1.52 | -1.39 |
| POLA2 | 2 | -0.629 | 0.657 | -0.246 | 1.12 |
| PPL | 1 | 0.514 | -4.19 | -2.4 | 0.0234 |
| PPL | 2 | 0.762 | 1.93 | -0.399 | 0.619 |

The list goes on; the last 8 above are carried over.
| gene | siRNA no. | EdU z-score, cyclin E line, hydroxyurea | EdU z-score, parental, hydroxyurea | EdU z-score, cyclin E line, untreated | EdU z-score, parental, untreated |
| --- | --- | --- | --- | --- | --- |
| RNF128 | 1 | 0.0424 | -2.93 | -4.87 | -1.3 |
| RNF128 | 2 | 2.41 | -0.163 | -0.0456 | 0.339 |
| TRIM32 | 1 | 0.0655 | -1.26 | -1.06 | -0.744 |
| TRIM32 | 2 | 0.494 | 3.68 | -1.03 | 0.147 |
| POLA2 | 1 | -1.1 | -1.83 | -1.52 | -1.39 |
| POLA2 | 2 | -0.629 | 0.657 | -0.246 | 1.12 |
| PPL | 1 | 0.514 | -4.19 | -2.4 | 0.0234 |
| PPL | 2 | 0.762 | 1.93 | -0.399 | 0.619 |
| KAT2B | 1 | -0.606 | -3.88 | -0.552 | -0.22 |
| KAT2B | 2 | 1.28 | -2.42 | -0.0992 | 0.192 |
| RBMS1 | 1 | -2.54 | -3.32 | -2.4 | -1.32 |
| RBMS1 | 2 | -0.429 | 4.07 | -0.853 | 1.26 |
| NASP | 1 | -1.05 | -3.03 | -1.84 | -1.05 |
| NASP | 2 | 1.51 | -1.11 | -0.412 | -0.355 |
| CCNA2 | 1 | -1.51 | -1.14 | 0.121 | -0.638 |
| CCNA2 | 2 | -0.103 | -0.819 | 0.184 | 2.8 |
| POLN | 1 | -0.114 | -2.21 | -2.33 | -1.04 |
| POLN | 2 | 0.477 | 0.691 | -1.54 | 1.13 |
| REPIN1 | 1 | 0.383 | -0.966 | -0.453 | -0.0131 |
| REPIN1 | 2 | 0.587 | -0.771 | 0.363 | 0.469 |
| ACIN1 | 1 | -1.3 | -1.71 | -0.818 | 0.0803 |
| ACIN1 | 2 | 1.15 | -1.21 | 0.35 | 1.51 |
| GML | 1 | -1.08 | 0.339 | -0.812 | -1.65 |
| GML | 2 | 0.868 | 2.37 | -0.501 | -0.447 |
| UVRAG | 1 | 0.6 | -0.185 | -1.1 | -2.37 |
| UVRAG | 2 | 1.25 | 1.17 | -0.351 | -1.23 |
| RPA2 | 1 | 0.00622 | -0.104 | -5.75 | -1.89 |
| RPA2 | 2 | 0.174 | 3.01 | -2.96 | -1.54 |
| ACD | 1 | -0.678 | -0.208 | -0.229 | -0.533 |
| ACD | 2 | -0.0757 | 2.23 | -0.0439 | 0.581 |
| ABL1 | 1 | -0.457 | -0.883 | -3.39 | -0.983 |
| ABL1 | 2 | 1.46 | 4.45 | -2.03 | 0.088 |
| KAT5 | 1 | -1.53 | -2.11 | -0.639 | 0.0862 |
| KAT5 | 2 | -0.149 | 1.79 | -0.477 | 1.95 |
| SETMAR | 1 | -1.64 | 1.48 | -3.41 | -1.4 |
| SETMAR | 2 | 0.5 | 1.79 | -0.947 | -1.02 |
